Test results reported in PMC11910234.
Results are given in words; binding and its absence hold for the method and conditions named. Binding seen in cells or lysates may run through a third protein. Some entries that bind do so weakly or less than the wild type.

Sequences of proteins named here, by UniProt entry; tags and fusion partners are left off.
UniProt Q14966: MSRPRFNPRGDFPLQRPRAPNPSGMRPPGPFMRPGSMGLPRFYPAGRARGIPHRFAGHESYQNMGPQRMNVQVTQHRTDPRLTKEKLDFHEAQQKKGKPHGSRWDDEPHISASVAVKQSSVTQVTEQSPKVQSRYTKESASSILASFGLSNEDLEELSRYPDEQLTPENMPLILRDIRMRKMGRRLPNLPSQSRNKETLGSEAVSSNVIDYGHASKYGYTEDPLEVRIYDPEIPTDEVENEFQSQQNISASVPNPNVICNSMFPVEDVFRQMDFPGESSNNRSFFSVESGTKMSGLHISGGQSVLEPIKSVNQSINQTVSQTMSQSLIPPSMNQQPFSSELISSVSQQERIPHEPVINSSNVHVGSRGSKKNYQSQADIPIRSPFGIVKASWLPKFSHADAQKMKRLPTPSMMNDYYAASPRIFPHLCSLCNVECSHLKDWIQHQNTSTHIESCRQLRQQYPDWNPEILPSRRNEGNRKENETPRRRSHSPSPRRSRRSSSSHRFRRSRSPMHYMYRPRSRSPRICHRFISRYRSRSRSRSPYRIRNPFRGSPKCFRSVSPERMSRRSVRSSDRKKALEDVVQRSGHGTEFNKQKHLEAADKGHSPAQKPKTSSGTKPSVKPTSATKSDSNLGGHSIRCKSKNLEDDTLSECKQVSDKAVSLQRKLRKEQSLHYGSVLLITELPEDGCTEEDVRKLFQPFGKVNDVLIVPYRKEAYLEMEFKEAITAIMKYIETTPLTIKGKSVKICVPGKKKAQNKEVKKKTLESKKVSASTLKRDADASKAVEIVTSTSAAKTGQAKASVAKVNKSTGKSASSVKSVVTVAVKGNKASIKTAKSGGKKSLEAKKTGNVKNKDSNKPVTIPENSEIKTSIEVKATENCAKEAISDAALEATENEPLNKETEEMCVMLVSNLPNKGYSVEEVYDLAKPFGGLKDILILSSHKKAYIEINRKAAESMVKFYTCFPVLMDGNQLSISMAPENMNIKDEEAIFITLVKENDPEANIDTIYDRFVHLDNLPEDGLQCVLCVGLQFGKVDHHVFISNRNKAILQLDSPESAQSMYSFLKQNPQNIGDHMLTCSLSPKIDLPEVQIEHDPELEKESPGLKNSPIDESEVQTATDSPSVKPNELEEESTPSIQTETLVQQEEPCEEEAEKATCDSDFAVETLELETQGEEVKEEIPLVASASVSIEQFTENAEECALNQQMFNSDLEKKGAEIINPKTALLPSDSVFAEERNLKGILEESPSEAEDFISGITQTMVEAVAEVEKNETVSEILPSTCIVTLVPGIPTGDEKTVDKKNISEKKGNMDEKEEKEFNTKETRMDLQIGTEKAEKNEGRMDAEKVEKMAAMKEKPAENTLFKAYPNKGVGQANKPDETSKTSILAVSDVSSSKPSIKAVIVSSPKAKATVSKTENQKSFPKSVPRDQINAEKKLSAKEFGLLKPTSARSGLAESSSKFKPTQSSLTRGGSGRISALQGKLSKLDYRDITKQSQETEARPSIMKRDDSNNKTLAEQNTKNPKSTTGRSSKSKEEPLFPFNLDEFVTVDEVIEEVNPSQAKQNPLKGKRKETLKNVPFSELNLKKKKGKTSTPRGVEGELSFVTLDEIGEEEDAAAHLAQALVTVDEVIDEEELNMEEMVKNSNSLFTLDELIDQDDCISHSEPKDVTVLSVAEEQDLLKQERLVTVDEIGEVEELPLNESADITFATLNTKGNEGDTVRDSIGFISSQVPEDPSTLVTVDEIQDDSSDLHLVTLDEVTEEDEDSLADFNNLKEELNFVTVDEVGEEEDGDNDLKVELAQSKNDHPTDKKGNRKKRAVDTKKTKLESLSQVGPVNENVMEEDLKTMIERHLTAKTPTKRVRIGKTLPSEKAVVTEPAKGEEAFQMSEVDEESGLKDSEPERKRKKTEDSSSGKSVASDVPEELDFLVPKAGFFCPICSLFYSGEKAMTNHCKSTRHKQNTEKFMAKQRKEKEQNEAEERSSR
UniProt Q99549: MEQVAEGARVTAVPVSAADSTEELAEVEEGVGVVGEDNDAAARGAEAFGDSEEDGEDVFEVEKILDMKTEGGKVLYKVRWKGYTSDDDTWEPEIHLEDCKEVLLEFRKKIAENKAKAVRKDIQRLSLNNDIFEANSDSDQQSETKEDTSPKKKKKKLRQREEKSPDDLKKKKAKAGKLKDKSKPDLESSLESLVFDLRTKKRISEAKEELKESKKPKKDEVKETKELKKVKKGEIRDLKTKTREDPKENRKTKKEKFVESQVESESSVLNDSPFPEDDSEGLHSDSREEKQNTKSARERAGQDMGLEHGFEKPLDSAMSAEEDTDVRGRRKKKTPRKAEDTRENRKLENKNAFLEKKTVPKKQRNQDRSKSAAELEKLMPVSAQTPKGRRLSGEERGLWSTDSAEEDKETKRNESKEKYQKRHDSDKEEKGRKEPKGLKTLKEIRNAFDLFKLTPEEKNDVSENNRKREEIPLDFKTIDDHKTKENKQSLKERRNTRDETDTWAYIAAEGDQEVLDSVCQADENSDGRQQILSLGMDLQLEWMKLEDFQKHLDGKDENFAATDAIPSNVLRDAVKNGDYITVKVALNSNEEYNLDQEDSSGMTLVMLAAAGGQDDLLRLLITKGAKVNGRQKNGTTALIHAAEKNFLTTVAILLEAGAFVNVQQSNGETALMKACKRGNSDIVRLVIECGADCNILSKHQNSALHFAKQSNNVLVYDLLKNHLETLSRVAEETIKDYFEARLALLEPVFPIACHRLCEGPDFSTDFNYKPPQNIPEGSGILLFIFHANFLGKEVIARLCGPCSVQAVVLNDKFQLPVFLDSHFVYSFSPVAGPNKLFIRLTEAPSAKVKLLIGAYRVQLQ
UniProt Q9UK61: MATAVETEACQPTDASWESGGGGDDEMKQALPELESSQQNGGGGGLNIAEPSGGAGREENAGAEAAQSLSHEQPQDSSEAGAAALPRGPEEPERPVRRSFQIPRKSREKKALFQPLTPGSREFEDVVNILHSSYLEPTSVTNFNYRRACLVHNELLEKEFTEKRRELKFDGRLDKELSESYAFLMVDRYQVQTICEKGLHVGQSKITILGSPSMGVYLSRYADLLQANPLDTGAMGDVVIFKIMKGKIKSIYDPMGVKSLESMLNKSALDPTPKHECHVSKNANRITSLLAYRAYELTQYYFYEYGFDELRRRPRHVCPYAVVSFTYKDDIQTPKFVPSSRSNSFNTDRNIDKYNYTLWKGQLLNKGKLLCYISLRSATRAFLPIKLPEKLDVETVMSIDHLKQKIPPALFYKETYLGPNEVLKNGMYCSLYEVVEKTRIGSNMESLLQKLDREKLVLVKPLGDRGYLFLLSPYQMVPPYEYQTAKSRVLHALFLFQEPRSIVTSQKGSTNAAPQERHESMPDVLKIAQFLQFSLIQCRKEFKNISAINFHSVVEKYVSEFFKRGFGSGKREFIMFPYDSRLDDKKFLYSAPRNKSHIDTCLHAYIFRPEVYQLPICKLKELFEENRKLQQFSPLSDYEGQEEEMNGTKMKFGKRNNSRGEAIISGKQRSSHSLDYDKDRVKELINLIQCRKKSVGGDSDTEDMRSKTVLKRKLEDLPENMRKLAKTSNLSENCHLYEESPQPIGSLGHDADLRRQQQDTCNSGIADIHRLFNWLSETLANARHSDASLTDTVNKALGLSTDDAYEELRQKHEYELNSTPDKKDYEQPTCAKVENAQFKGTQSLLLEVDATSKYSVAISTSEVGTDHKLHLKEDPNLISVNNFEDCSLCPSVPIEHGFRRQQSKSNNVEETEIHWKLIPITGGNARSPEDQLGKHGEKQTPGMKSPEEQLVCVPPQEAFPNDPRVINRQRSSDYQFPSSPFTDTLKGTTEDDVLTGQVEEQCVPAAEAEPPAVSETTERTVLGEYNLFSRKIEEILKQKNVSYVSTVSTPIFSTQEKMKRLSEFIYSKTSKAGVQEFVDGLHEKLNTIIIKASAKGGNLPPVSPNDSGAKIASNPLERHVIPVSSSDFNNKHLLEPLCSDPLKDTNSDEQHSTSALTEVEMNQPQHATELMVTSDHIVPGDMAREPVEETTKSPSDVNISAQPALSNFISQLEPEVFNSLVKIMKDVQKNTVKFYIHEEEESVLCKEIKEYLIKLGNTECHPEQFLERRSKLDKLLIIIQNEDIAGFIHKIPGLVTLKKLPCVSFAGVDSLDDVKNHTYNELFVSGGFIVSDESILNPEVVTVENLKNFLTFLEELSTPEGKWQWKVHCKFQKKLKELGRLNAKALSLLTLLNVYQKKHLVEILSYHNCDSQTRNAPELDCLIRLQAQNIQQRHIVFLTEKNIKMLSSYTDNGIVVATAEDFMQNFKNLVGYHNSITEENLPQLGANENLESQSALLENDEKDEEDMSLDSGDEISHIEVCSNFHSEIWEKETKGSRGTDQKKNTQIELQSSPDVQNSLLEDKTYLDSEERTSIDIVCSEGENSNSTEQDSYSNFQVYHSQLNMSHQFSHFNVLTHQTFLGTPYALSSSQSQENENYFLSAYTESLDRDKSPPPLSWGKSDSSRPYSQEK

Target: Zinc Finger Protein 638 (ZNF638) (human (endogenous in A172)) (UniProt Q14966)
Assay: co-IP; A172 cells treated with scramble or ZNF638 siRNA, lysed in RIPA lysis buffer with protease inhibitors; precleared with protein A/G agarose; precipitated with anti-ZNF638 antibody overnight, protein A/G agarose 2.5 hours; blotted with SETDB1, TASOR and MPHOSPH8 antibodies

| binding | Substance |
| --- | --- |
| binds | M-phase phosphoprotein 8 (MPP8) (from UniProt Q99549 1-860) |
| binds | transcription activation suppressor (TASOR) (from UniProt Q9UK61 1-1670) |
